Reference: patent publication US10525115B2 (Immatics Biotechnologies GmbH, priority 2014, dated 2020)

Tested on: primary AML samples
Test: HLA class I ligandome analysis (W6/32 immunoaffinity purification, LC-MS/MS) of primary AML samples
Set-up: species or system human
Conditions: for Number of positive AMLs: HLA class I ligandome, AML patients (n=15), count for the HLA ligand (LiTAP) or, on protein lines, for the source protein (LiTAA); for Number of positive AMLs [rep. frequency]: representation frequency of the source protein (LiTAA) in AML patients (n=15)

Molecule | Number of positive AMLs | Number of positive AMLs [rep. frequency]
NOP14 (protein, UniProt P78316 1-857, looked up) Nucleolar protein 14: MAKAKKVGARRKASGAPAGARGGPAKANSNPFEVKVNRQKFQILGRKTRHDVGLPGVSRARALRKRTQTLLKEYKERDKSNVFRDKRFGEYNSNMSPEEKMMKRFALEQQRHHEKKSIYNLNEDEELTHYGQSLADIEKHNDIVDSDSDAEDRGTLSAELTAAHFGGGGGLLHKKTQQEGEEREKPKSRKELIEELIAKSKQEKRERQAQREDALELTEKLDQDWKEIQTLLSHKTPKSENRDKKEKPKPDAYDMMVRELGFEMKAQPSNRMKTEAELAKEEQEHLRKLEAERLRRMLGKDEDENVKKPKHMSADDLNDGFVLDKDDRRLLSYKDGKMNVEEDVQEEQSKEASDPESNEEEGDSSGGEDTEESDSPDSHLDLESNVESEEENEKPAKEQRQTPGKGLISGKERAGKATRDELPYTFAAPESYEELRSLLLGRSMEEQLLVVERIQKCNHPSLAEGNKAKLEKLFGFLLEYVGDLATDDPPDLTVIDKLVVHLYHLCQMFPESASDAIKFVLRDAMHEMEEMIETKGRAALPGLDVLIYLKITGLLFPTSDFWHPVVTPALVCLSQLLTKCPILSLQDVVKGLFVCCLFLEYVALSQRFIPELINFLLGILYIATPNKASQGSTLVHPFRALGKNSELLVVSAREDVATWQQSSLSLRWASRLRAPTSTEANHIRLSCLAVGLALLKRCVLMYGSLPSFHAIMGPLQALLTDHLADCSHPQELQELCQSTLTEMESQKQLCRPLTCEKSKPVPLKLFTPRLVKVLEFGRKQGSSKEEQERKRLIHKHKREFKGAVREIRKDNQFLARMQLSEIMERDAERKRKVKQLFNSLATQEGEWKALKRKKFKK | 3 | [20.0%]
RLTPR (protein, UniProt Q6F5E8 1-1435, looked up) Capping protein, Arp2/3 and …: MAQTPDGISCELRGEITRFLWPKEVELLLKTWLPGEGAVQNHVLALLRWRAYLLHTTCLPLRVDCTFSYLEVQAMALQETPPQVTFELESLRELVLEFPGVAALEQLAQHVAAAIKKVFPRSTLGKLFRRPTPASMLARLERSSPSESTDPCSPCGGFLETYEALCDYNGFPFREEIQWDVDTIYHRQGCRHFSLGDFSHLGSRDLALSVAALSYNLWFRCLSCVDMKLSLEVSEQILHMMSQSSHLEELVLETCSLRGDFVRRLAQALAGHSSSGLRELSLAGNLLDDRGMTALSRHLERCPGALRRLSLAQTGLTPRGMRALGRALATNAAFDSTLTHLDLSGNPGALGASEDSGGLYSFLSRPNVLSFLNLAGTDTALDTVRGCSVGGWMTGRADWRAGRGGLGPPAGVANSLPPQLFAAVSRGCCTSLTHLDASRNVFSRTKSRAAPAALQLFLSRARTLRHLGLAGCKLPPDALRALLDGLALNTHLRDLHLDLSACELRSAGAQVIQDLVCDAGAVSSLDLADNGFGSDMVTLVLAIGRSRSLRHVALGRNFNVRCKETLDDVLHRIVQLMQDDDCPLQSLSVAESRLKLGASVLLRALATNPNLTALDISGNAMGDAGAKLLAKALRVNSRLRSVVWDRNHTSALGLLDVAQALEQNHSLKAMPLPLNDVAQAQRSRPELTARAVHQIQACLLRNNRADPASSDHTTRLQPLGLVSDPSEQEVNELCQSVQEHVELLGCGAGPQGEAAVRQAEDAIQNANFSLSILPILYEAGSSPSHHWQLGQKLEGLLRQVGEVCRQDIQDFTQATLDTARSLCPQMLQGSSWREQLEGVLAGSRGLPELLPEQLLQDAFTRLRDMRLSITGTLAESIVAQALAGLSAARDQLVESLAQQATVTMPPALPAPDGGEPSLLEPGELEGLFFPEEKEEEKEKDDSPPQKWPELSHGLHLVPFIHSAAEEAEPEPELAAPGEDAEPQAGPSARGSPSPAAPGPPAGPLPRMDLPLAGQPLRHPTRARPRPRRQHHHRPPPGGPQVPPALPQEGNGLSARVDEGVEEFFSKRLIQQDRLWAPEEDPATEGGATPVPRTLRKKLGTLFAFKKPRSTRGPRTDLETSPGAAPRTRKTTFGDLLRPPTRPSRGEELGGAEGDTSSPDPAGRSRPRYTRDSKAYSMILLPAEEEATLGARPDKRRPLERGETELAPSFEQRVQVMLQRIGVSRGSGGAEGKRKQSKDGEIKKAGSDGDIMDSSTEAPPISIKSRTHSVSADPSCRPGPGSQGPESATWKTLGQQLNAELRSRGWGQQDGPGPPSPGQSPSPCRTSPSPDSLGLPEDPCLGPRNEDGQLRPRPLSAGRRAVSVHEDQLQAPAERPLRLQRSPVLKRRPKLEAPPSPSLGSGLGTEPLPPQPTEPSSPERSPPSPATDQRGGGPNP | 3 | [20.0%]
UBE2G2 (protein, UniProt P60604 2-165, looked up) Ubiquitin-conjugating enzyme …: AGTALKRLMAEYKQLTLNPPEGIVAGPMNEENFFEWEALIMGPEDTCFEFGVFPAILSFPLDYPLSPPKMRFTCEMFHPNIYPDGRVCISILHAPGDDPMGYESSAERWSPVQSVEKILLSVVSMLAEPNDESGANVDASKMWRDDREQFYKIAKQIVQKSLGL | 3 | [20.0%]
CLEC12A (protein, UniProt Q5QGZ9 1-265, looked up) C-type lectin domain family …: MSEEVTYADLQFQNSSEMEKIPEIGKFGEKAPPAPSHVWRPAALFLTLLCLLLLIGLGVLASMFHVTLKIEMKKMNKLQNISEELQRNISLQLMSNMNISNKIRNLSTTLQTIATKLCRELYSKEQEHKCKPCPRRWIWHKDSCYFLSDDVQTWQESKMACAAQNASLLKINNKNALEFIKSQSRSYDYWLGLSPEEDSTRGMRVDNIINSSAWVIRNAPDLNNMYCGYINRLYVQYYHCTYKKRMICEKMANPVQLGSTYFREA | 3 | [20.0%]
SLX4IP (protein, UniProt Q5VYV7 1-408, looked up) Protein SLX4IP: MASKKFAVKCGNFAVLVDLHILPQGSNKDTSWFSEQKKEEVCLLLKETIDSRVQEYLEVRKQHRPSNAEFTRSNPLSLKGYGFQITAYFLKRGIRLRCIRSTQNAELCVFPDRFVVCVSQLAFSRDLLASQNEDLTERVLHGVSDYFAECAESSLPPSAKLRRNALKEIVKRTETKSSVTSKSQTRRDTVETSSDSVIAEIARRRNDGQASSSPPSESMGQAKDSIKAAESHWGLPVQKLEKVNQTQPEDTSGQQKPHPGERLKTGLLSRSPVCSCESASPCPKQSPRVAKTQQKRRNCSSAEDFDHHGRVSLGSDRLVPREIIVEKSKAVRVLPASELSDPGLLLKQDLAKTTSKEELHVLESLSSRHLMKNNPGQAQQTGLATNTERLSTIQNSPTKKRKKYERGH | 3 | [20.0%]
TFCP2 (protein, UniProt Q12800 1-502, looked up) Alpha-globin transcription …: MAWALKLPLADEVIESGLVQDFDASLSGIGQELGAGAYSMSDVLALPIFKQEESSLPPDNENKILPFQYVLCAATSPAVKLHDETLTYLNQGQSYEIRMLDNRKLGELPEINGKLVKSIFRVVFHDRRLQYTEHQQLEGWRWNRPGDRILDIDIPMSVGIIDPRANPTQLNTVEFLWDPAKRTSVFIQVHCISTEFTMRKHGGEKGVPFRVQIDTFKENENGEYTEHLHSASCQIKVFKPKGADRKQKTDREKMEKRTPHEKEKYQPSYETTILTECSPWPEITYVNNSPSPGFNSSHSSFSLGEGNGSPNHQPEPPPPVTDNLLPTTTPQEAQQWLHRNRFSTFTRLFTNFSGADLLKLTRDDVIQICGPADGIRLFNALKGRMVRPRLTIYVCQESLQLREQQQQQQQQQQKHEDGDSNGTFFVYHAIYLEELTAVELTEKIAQLFSISPCQISQIYKQGPTGIHVLISDEMIQNFQEEACFILDTMKAETNDSYHIILK | 3 | [20.0%]
CBX2 (protein, UniProt Q14781 1-532, looked up) Chromobox protein homolog 2: MEELSSVGEQVFAAECILSKRLRKGKLEYLVKWRGWSSKHNSWEPEENILDPRLLLAFQKKEHEKEVQNRKRGKRPRGRPRKLTAMSSCSRRSKLKEPDAPSKSKSSSSSSSSTSSSSSSDEEDDSDLDAKRGPRGRETHPVPQKKAQILVAKPELKDPIRKKRGRKPLPPEQKATRRPVSLAKVLKTARKDLGAPASKLPPPLSAPVAGLAALKAHAKEACGGPSAMATPENLASLMKGMASSPGRGGISWQSSIVHYMNRMTQSQAQAASRLALKAQATNKCGLGLDLKVRTQKGELGMSPPGSKIPKAPSGGAVEQKVGNTGGPPHTHGASRVPAGCPGPQPAPTQELSLQVLDLQSVKNGMPGVGLLARHATATKGVPATNPAPGKGTGSGLIGASGATMPTDTSKSEKLASRAVAPPTPASKRDCVKGSATPSGQESRTAPGEARKAATLPEMSAGEESSSSDSDPDSASPPSTGQNPSVSVQTSQDWKPTRSLIEHVFVTDVTANLITVTVKESPTSVGFFNLRHY | 3 | [20.0%]
HLX (protein, UniProt Q14774 1-488, looked up) H2.0-like homeobox protein: MFAAGLAPFYASNFSLWSAAYCSSAGPGGCSFPLDPAAVKKPSFCIADILHAGVGDLGAAPEGLAGASAAALTAHLGSVHPHASFQAAARSPLRPTPVVAPSEVPAGFPQRLSPLSAAYHHHHPQQQQQQQQPQQQQPPPPPRAGALQPPASGTRVVPNPHHSGSAPAPSSKDLKFGIDRILSAEFDPKVKEGNTLRDLTSLLTGGRPAGVHLSGLQPSAGQFFASLDPINEASAILSPLNSNPRNSVQHQFQDTFPGPYAVLTKDTMPQTYKRKRSWSRAVFSNLQRKGLEKRFEIQKYVTKPDRKQLAAMLGLTDAQVKVWFQNRRMKWRHSKEAQAQKDKDKEAGEKPSGGAPAADGEQDERSPSRSEGEAESESSDSESLDMAPSDTERTEGSERSLHQTTVIKAPVTGALITASSAGSGGSSGGGGNSFSFSSASSLSSSSTSAGCASSLGGGGASELLPATQPTASSAPKSPEPAQGALGCL | 3 | [20.0%]
TMPRSS3 (protein, UniProt P57727 1-454, looked up) Transmembrane protease serine …: MGENDPPAVEAPFSFRSLFGLDDLKISPVAPDADAVAAQILSLLPLKFFPIIVIGIIALILALAIGLGIHFDCSGKYRCRSSFKCIELIARCDGVSDCKDGEDEYRCVRVGGQNAVLQVFTAASWKTMCSDDWKGHYANVACAQLGFPSYVSSDNLRVSSLEGQFREEFVSIDHLLPDDKVTALHHSVYVREGCASGHVVTLQCTACGHRRGYSSRIVGGNMSLLSQWPWQASLQFQGYHLCGGSVITPLWIITAAHCVYDLYLPKSWTIQVGLVSLLDNPAPSHLVEKIVYHSKYKPKRLGNDIALMKLAGPLTFNEMIQPVCLPNSEENFPDGKVCWTSGWGATEDGAGDASPVLNHAAVPLISNKICNHRDVYGGIISPSMLCAGYLTGGVDSCQGDSGGPLVCQERRLWKLVGATSFGIGCAEVNKPGVYTRVTSFLDWIHEQMERDLKT | 3 | [20.0%]
